Laboratory results as given in PMC3630169.
Results are given in words; binding and its absence hold for the method and conditions named. Some binding calls cover weakened binding; strength is not graded here.

Chains of the proteins cited; added tags and fusions are not shown. Residues count along the entry.
UniProt P08603, residues 1107-1231: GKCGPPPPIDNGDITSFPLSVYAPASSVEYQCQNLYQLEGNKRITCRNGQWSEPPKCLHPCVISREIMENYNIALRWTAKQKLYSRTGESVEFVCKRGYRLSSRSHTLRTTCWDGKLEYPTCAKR
UniProt P01024, residues 996-1287: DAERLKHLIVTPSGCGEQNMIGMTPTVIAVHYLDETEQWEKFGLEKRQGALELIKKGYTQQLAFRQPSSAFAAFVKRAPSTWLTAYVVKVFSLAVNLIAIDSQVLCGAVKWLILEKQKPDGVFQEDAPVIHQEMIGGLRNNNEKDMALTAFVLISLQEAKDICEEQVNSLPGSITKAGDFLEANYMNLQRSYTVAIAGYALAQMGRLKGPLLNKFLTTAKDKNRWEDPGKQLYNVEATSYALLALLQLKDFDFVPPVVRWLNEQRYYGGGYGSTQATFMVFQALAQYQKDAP

What was measured:
[1] = molecular target: wild type FH19-20 (recombinant fragment of factor H domains 19–20) (human) (UniProt P08603); assay: radioligand binding; solid phase OspE or FhbA, ^125I-FH19-20 with increasing concentrations of C3d, heparin or unlabelled FH19-20; 37°C, 60 min, PBS; both purified
[2] = molecular target: wild type FH19-20 (recombinant fragment of factor H domains 19–20) (human) (UniProt P08603); assay: radioligand binding; solid phase Tuf, ^125I-FH19-20 with increasing concentrations of C3d, heparin or unlabelled FH19-20; blocking and washing in 50% PBS; 37°C, 60 min; both purified

“C3d (from UniProt P01024) (domain or fragment)” was tested, and the binding [1] was “binds” and the binding [2] was “binds”.
